Experimental data taken from patent US20250177576A1, “COMPOUNDS FOR THE MEASUREMENT OF THE OXYGEN CONCENTRATION” (Center for Neuromusculoskeletal Restorative Medicine Limited, priority 2022, published 2025).

Test: Oxygen quenching calibration (Stern-Volmer) in tetrahydrofuran
Format: physicochemical
Conditions: 10 μM in tetrahydrofuran
Procedure: The photoluminescence spectra of the Pt(ttiq)(acac) (10 μM) in tetrahydrofuran in different oxygen concentrations upon 500 nm photoexcitation is presented in FIG. 2A. The phosphorescence peak intensity (698 nm) increases while the oxygen level of the solution decreases, whereas the fluorescence (528 nm) remains independent of the oxygen level. The oxygen quenching of the phosphorescence may be interpreted using Stern-Volmer relationship, in which (I0/I=1+KSV·[O2]) where I: phosphorescence intensity; I0: phosphorescence intensity at 0% of oxygen; KSV: quencher coefficient; [O2]: oxygen concentration. […] Mathematically, the Stern-Volmer relationship could be further derived to (R0/R=1+KSV·[O2]) whereas the fluorescence peak intensity is a constant, and thus the R0 could be estimated from the equation of (y=2.04177/(1+0.03267−x); adjusted R^2=0.97785) in FIG. 2D. […]
The oxygen concentration (%) or partial pressure of solution samples were varied by O2/N2 gas-purging with a syringe needle and natural ventilation (or gradually adding sodium sulfite (Na2SO3) solution as an oxygen consuming chemical reagent). […] The photoluminescence signals of the nano-sensor solution at different oxygen concentrations (%) (or partial pressures) were then measured by the fluorescence spectrophotometer and confocal laser scanning microscope. […]

SMILES: CC(=O)C=C(C)[O][Pt][c]1c(-c2nccc3ccccc23)sc2ccsc12 [Pt(ttiq)(acac)]
- estimated maximum intensity ratio R0 (phosphorescence over fluorescence, FIG. 2D): 2.042
- estimated maximum phosphorescence intensity I0 (Stern-Volmer fit, FIG. 2B): 133.8
